# Source: the supplement of paper PMC9135407
# Where “and” joins values, the source holds several entries; their conditions need not be identical. Identical values can stand only once. Counter-ions that a name gives are not always drawn. ± gives the standard deviation of the averaged measurements. The list shows a part of the results. Plates or batches differ in their baseline, so values are only roughly comparable.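 Assay uses culture-activated primary human stellate myofibroblasts; lipid droplet recovery indicates inactivation. Measured: proportion of Hoechst-counted cells over a plate-specific Bodipy cutoff, duplicate wells, DMSO and nortriptyline as per-plate negative and positive controls. A hit scores, control-normalized, above the plate's top-tenth-percentile nortriptyline wells or ranks among its three best wells. Final well concentrations not reported.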
# Tested on: primary human hepatic stellate cells (donor 1)
# Assay: percent Bodipy-positive cells; higher = more lipid droplet accumulation
# Conditions: 48 h
# [1] = library stock concentration: 10 mM
# [2] = library stock concentration: 1 mM
# [3] = library stock concentration: 3.33 mM
# [4] = library stock concentration: 400 uM
# [5] = library stock concentration: 2 mM
structure (smiles),measurement,setting,value
COc1cc2c(CCNC(C)=O)c[nH]c2cc1Cl [6-Chloromelatonin],percent Bodipy-positive cells,[1],37.1% and 12.8%
CCCCC[C@H](O)/C=C/[C@H]1[C@@H](O)CC(=O)[C@@H]1CCCCCCC(=O)O [11.beta.-Prostaglandin E1],percent Bodipy-positive cells,[2],18.5 ± 6.1%
Cn1cccc1/C=C1\C(=O)NC(=O)c2ccccc21,percent Bodipy-positive cells,[1],13.2 ± 5.2%
CN(C)c1ccc(C(=O)NCCCCCC(=O)NO)cc1,percent Bodipy-positive cells,[2],19 ± 5%
CCCCCC(=O)/C=C/[C@@H]1[C@@H](CCCCCCC(=O)O)[C@@H](O)C[C@H]1O [15-keto Prostaglandin F1.alpha.],percent Bodipy-positive cells,[2],13.8 ± 4.1%
Cl.c1cc(OCCN2CCCCC2)cc(-c2n[nH]c3ccc(-c4nc[nH]n4)cc23)c1,percent Bodipy-positive cells,[1],97.2 ± 2.4%
"C=CCn1c(=O)c2c(nc(-c3ccc(S(=O)(=O)O)cc3)n2C)n(C)c1=O [1-Allyl-3,7-dimethyl-8-p-sulfophenylxanthine]",percent Bodipy-positive cells,[1],35.81 ± 0.3%
C[C@]12CC[C@@H]3c4ccc(OS(=O)(=O)O)cc4CC[C@H]3[C@@H]1CCC2=O [Estropipate],percent Bodipy-positive cells,,9.56 ± 2%
C[C@]12CC[C@@H]3c4ccc(OS(=O)(=O)O)cc4CC[C@H]3[C@@H]1CCC2=O,percent Bodipy-positive cells,[1],17.1 ± 6.8%
CCOC(=O)c1ccc(N)cc1 [Benzocaine],percent Bodipy-positive cells,,10.9 ± 0.78%
same,percent Bodipy-positive cells,[3],10.6 ± 2.5%
same,percent Bodipy-positive cells,[1],37.8% and 12.8%
same,percent Bodipy-positive cells,library stock concentration: 12.1 mM,3.14 ± 0.27%
CCCCCCCCCCCCc1ccc(S(=O)(=O)Nc2nncs2)cc1,percent Bodipy-positive cells,[3],10.8 ± 3.4%
same,percent Bodipy-positive cells,[1],28.8 ± 3.3%
CC1c2ccccc2CN1CC1=NCCN1 (stereo not given),percent Bodipy-positive cells,[1],6.49 ± 0.93%
CCCCCCCCCCCCCCC(F)C(=O)O (stereo not given) [2-Fluoropalmitic acid],percent Bodipy-positive cells,[2],9.9 ± 8.9%
CCCCCCCCCCCCCCC(F)C(=O)O (stereo not given) [2-Fluoropalmitic Acid],percent Bodipy-positive cells,[2],8.13 ± 1.1%
OC(CCCN1CCCCC1)(c1ccccc1)c1ccccc1 [Diphenidol HCl],percent Bodipy-positive cells,[3],14.4 ± 1.6%
same,percent Bodipy-positive cells,[1],55.4 ± 14%
OC(CCCN1CCCCC1)(c1ccccc1)c1ccccc1 [Diphenidol hydrochloride],percent Bodipy-positive cells,,43.6 ± 2.5%
CCN(CC)CCOC(=O)C(c1ccccc1)c1ccccc1 [Adiphenine hydrochloride],percent Bodipy-positive cells,,31.6 ± 2%
same,percent Bodipy-positive cells,library stock concentration: 5.7 mM,18.7 ± 0.38%
same,percent Bodipy-positive cells,[1],47.6 ± 4.3%
CCN(CC)CCOC(=O)C(c1ccccc1)c1ccccc1 [Adiphenine HCl],percent Bodipy-positive cells,[3],9.97 ± 0.49%
same,percent Bodipy-positive cells,[1],20.4 ± 7.9%
CC(C)(C)CC(C)(C)c1ccc(O)c(Cc2ccc(Cl)cc2Cl)c1 [Clofoctol],percent Bodipy-positive cells,[1],37 ± 1.2%
COc1ccc2nc3n[nH]c(C)c3c(NCCOCCO)c2c1,percent Bodipy-positive cells,library stock concentration: 80 uM,16.3 ± 6.9%
same,percent Bodipy-positive cells,[4],11.8 ± 5.6%
same,percent Bodipy-positive cells,[5],15.3 ± 1.3%
same,percent Bodipy-positive cells,[3],33.3 ± 6.7%
same,percent Bodipy-positive cells,[1],21.1 ± 2.4%
Cc1ccc([N+](=O)[O-])cc1S(=O)(=O)N(C)/N=C/c1cnc2ccc(Br)cn12,percent Bodipy-positive cells,[4],67.3 ± 14%
same,percent Bodipy-positive cells,[5],53.6 ± 8.2%
same,percent Bodipy-positive cells,[3],70.8 ± 10%
same,percent Bodipy-positive cells,[1],63.7% and 54.3%
COc1cc(-c2ccc(=O)[nH]n2)ccc1OC(F)F,percent Bodipy-positive cells,[1],26.1 ± 3.6%
COc1cc(-c2ccc(=O)[nH]n2)ccc1OC(F)F [Zardaverine],percent Bodipy-positive cells,,37.3 ± 4.3%
same,percent Bodipy-positive cells,library stock concentration: 7.5 mM,32.2 ± 12%
same,percent Bodipy-positive cells,[1],34.5 ± 4.5%
CCCCC[C@@](C)(O)/C=C/[C@@H]1[C@@H](C/C=C\CCCC(=O)OC)[C@@H](O)C[C@H]1O [15(R)-15-methyl Prostaglandin F2.alpha. methyl ester],percent Bodipy-positive cells,[2],20.2 ± 2.4%
O=c1cc(-c2ccc(O)cc2)oc2c([C@@H]3O[C@H](CO)[C@@H](O)[C@H](O)[C@H]3O)c(O)cc(O)c12 [Vitexin],percent Bodipy-positive cells,,8.52 ± 0.42%
CC[N+](CC)(CC)CC(=O)Nc1c(C)cccc1C [QX 314 chloride],percent Bodipy-positive cells,[1],8.61 ± 0.58%
CC[N+](CC)(CC)CC(=O)Nc1c(C)cccc1C [QX 314 bromide],percent Bodipy-positive cells,[1],9.77 ± 5.9%
CC[N+](CC)(CC)CC(=O)Nc1c(C)cccc1C [Lidocaine N-ethyl bromide quaternary salt],percent Bodipy-positive cells,[1],22.6 ± 2.3%
c1ccc(COCCCc2c[nH]cn2)cc1 [Proxyfan Oxalate],percent Bodipy-positive cells,[1],7.58 ± 1.3%
CCCCNc1c(C(=O)OCC)c(C)nc2c1cnn2CC [Tracazolate hydrochloride],percent Bodipy-positive cells,,7.99 ± 2%
same,percent Bodipy-positive cells,[1],12.9 ± 9.2%
CCCCNc1c(C(=O)OCC)c(C)nc2c1cnn2CC [Tracazolate],percent Bodipy-positive cells,[1],54.4 ± 8.3%
CNCCCC12CCC(c3ccccc31)c1ccccc12.Cl [Maprotiline hydrochloride],percent Bodipy-positive cells,library stock concentration: 6.4 mM,63.9 ± 2.2%
same,percent Bodipy-positive cells,[1],87.3% and 100%
COCCOc1cc2ncnc(Cl)c2cc1OCCOC,percent Bodipy-positive cells,[1],21.3 ± 6%
CCCCC1(COC(=O)CCC(=O)O)C(=O)N(c2ccccc2)N(c2ccccc2)C1=O [Suxibuzone],percent Bodipy-positive cells,,7.72 ± 1.4%
same,percent Bodipy-positive cells,[1],38.7 ± 8.2%
COc1cc(NC(C)CCCN)c2ncccc2c1 (stereo not given) [Primaquine phosphate],percent Bodipy-positive cells,library stock concentration: 7.7 mM,8.3 ± 1.6%
COc1cc(NC(C)CCCN)c2ncccc2c1 (stereo not given) [Primaquine Diphosphate],percent Bodipy-positive cells,[3],8.62 ± 0.3%
COc1cc(NC(C)CCCN)c2ncccc2c1 (stereo not given) [Primaquine diphosphate],percent Bodipy-positive cells,,27.4 ± 4.5%
same,percent Bodipy-positive cells,library stock concentration: 4.4 mM,18.9 ± 1.5%
same,percent Bodipy-positive cells,[1],18.4 ± 0.39%
O=c1[nH]c(=O)n([C@H]2C[C@H](O)[C@@H](CO)O2)cc1Br [5-Bromo-2'-deoxyuridine],percent Bodipy-positive cells,[1],61.1 ± 4.3%
